# Publication PMC2841635
# Results are given in words; binding and its absence hold for the method and conditions named. Binding seen in cells or lysates may run through a third protein. Binding can be weak; no strength is given. Sequences can lack the tags named with a protein.
# Biological target: T1, activated Ack1, caAck (L487F mutant), myc-tagged (UniProt Q07912)
# T1 sequence: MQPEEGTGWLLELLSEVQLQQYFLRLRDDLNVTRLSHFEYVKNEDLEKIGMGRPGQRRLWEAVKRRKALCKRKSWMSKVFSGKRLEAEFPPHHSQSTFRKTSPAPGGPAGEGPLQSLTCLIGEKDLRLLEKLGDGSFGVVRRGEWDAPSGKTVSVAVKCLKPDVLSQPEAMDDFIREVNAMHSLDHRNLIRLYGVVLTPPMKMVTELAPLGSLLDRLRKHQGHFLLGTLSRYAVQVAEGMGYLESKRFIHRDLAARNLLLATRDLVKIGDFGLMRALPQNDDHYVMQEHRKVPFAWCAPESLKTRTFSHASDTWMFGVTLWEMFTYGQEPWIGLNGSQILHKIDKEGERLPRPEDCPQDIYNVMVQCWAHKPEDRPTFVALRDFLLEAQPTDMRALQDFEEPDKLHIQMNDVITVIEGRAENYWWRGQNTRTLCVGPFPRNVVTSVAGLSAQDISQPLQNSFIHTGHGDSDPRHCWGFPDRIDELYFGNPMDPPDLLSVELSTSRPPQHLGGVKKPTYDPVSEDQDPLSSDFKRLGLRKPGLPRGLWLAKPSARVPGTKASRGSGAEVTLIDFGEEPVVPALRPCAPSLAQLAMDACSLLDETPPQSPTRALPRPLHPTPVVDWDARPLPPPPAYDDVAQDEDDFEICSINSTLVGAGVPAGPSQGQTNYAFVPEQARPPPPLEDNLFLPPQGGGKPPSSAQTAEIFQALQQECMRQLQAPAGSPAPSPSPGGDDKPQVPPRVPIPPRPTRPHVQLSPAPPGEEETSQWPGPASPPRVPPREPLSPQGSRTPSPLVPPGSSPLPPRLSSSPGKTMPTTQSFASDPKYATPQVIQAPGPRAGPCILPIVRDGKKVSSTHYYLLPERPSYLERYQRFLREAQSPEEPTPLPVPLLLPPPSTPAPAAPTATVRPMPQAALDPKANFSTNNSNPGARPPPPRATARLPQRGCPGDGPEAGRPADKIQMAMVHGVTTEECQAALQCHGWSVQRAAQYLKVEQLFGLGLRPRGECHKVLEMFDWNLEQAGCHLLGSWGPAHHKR
# Test: co-IP; HEK293 cells co-transfected with HA-tagged AKT deletions and myc-tagged caAck; IP with Myc antibodies, IB with HA antibodies
row,binding,Substance
1,binds weakly,HA-tagged AKT deletion construct lacking the PH domain (ΔPH-AKT) (domain or fragment)
2,binds,HA-tagged AKT lacking carboxy terminus (ΔCT-AKT) (domain or fragment)
